PubChem BioAssay AID493246, Drosophila RNAi Screening Center | 2011

Test: 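Genes fly cells need to grow and stay alive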 (primary screen)
Cells: Drosophila Kc and S2R+ cells
Reagent: long dsRNA against Drosophila genes
Read-out: 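Raw, unnormalised count of remaining cells in each well; per-plate z-scores of cell number underlie the calls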
Direction: Kc cell number and S2R+ cell number: higher = more cells remaining
Call rule: 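Counted as a hit if cell number falls by a z-score of at least 3 within its plate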
In all, the deposit lists about 21,000 reagents; below is an unselected part of those that have a named target and a result. In the full data, 429 (2%) are marked active. 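Values are raw and not normalised between plates; calls rest on per-plate z-scores that were not deposited.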 Unmarked entries are inactive. The numbers tell different reagents against one gene apart. A plus sign joins genes that one reagent is predicted to hit. Not stated in the record: the amount of reagent, the time to read-out.

no.	gene knocked down	reagent no.	Kc cell number, rep 1	Kc cell number, rep 2	S2R+ cell number, rep 1	S2R+ cell number, rep 2
1	arm	1	5.93e5		7.88e5	
2	kra	1	1.44e6	1.62e6	1.16e6	1.29e6
3	Ilp2	1	1.25e6	1.35e6	1.41e6	1.09e6
4	Sirt1	1	1.28e6	1.35e6	1.16e6	1.27e6
5	CG1631	1	1.39e6	1.45e6	1.06e6	1.15e6
6	Cand1	1	1.22e6	1.25e6	1.18e6	1.25e6
7	CG31050	1	1.44e6	1.65e6	1.19e6	1.21e6
8	mio	1	1.14e6	1.30e6	5.36e5	4.54e5
9	CG4199	1	5.40e5		7.73e5	
10	CG11889 + CG11891	1	1.45e6	1.51e6	1.06e6	1.14e6
11	CG11889 + CG11891	2	1.63e6	1.72e6	1.03e6	1.09e6
12	Papst2	1	1.47e6	1.52e6	1.28e6	1.31e6
13	Noc2	1	1.28e6	1.36e6	9.22e5	1.02e6
14	CG10486	1	1.63e6	1.51e6	1.03e6	1.15e6
15	Obp47b + CG7741	1	1.69e6	1.75e6	1.38e6	1.49e6
16	CG7632	1	1.51e6	1.57e6	1.23e6	1.35e6
17	CG14323	1	1.64e6	1.70e6	1.28e6	1.37e6
18	hbs	1	1.54e6	1.57e6	1.33e6	1.42e6
19	CG31827 + CG18478	1	1.50e6	1.58e6	1.24e6	1.37e6
20	Xxylt	1	1.42e6	1.46e6	1.03e6	1.12e6
21	CG14419	1	1.61e6	1.57e6	1.05e6	1.17e6
22	Cfp1	1	1.55e6	1.51e6	6.86e5	7.78e5
23	CG8006	1	1.32e6	1.35e6	1.18e6	9.45e5
24	COX6AL2 + Ir75d	1	1.55e6	1.73e6	1.21e6	1.39e6
25	CG2267	1	1.42e6	1.40e6	1.01e6	1.09e6
26	CG14423	1	1.51e6	1.53e6	1.05e6	1.19e6
27	Blm + CG14721	1	1.40e6	1.50e6	1.24e6	1.38e6
28	ldbr	1	1.44e6	1.44e6	1.33e6	1.24e6

Part of the list above in another layout.
gene knocked down	reagent no.	Kc cell number, rep 1	Kc cell number, rep 2	S2R+ cell number, rep 1	S2R+ cell number, rep 2
arm	1	5.93e5		7.88e5	
kra	1	1.44e6	1.62e6	1.16e6	1.29e6
Ilp2	1	1.25e6	1.35e6	1.41e6	1.09e6
Sirt1	1	1.28e6	1.35e6	1.16e6	1.27e6
CG1631	1	1.39e6	1.45e6	1.06e6	1.15e6

Further reagents follow:
no.	gene knocked down	reagent no.	Kc cell number, rep 1	Kc cell number, rep 2	S2R+ cell number, rep 1	S2R+ cell number, rep 2
29	CG42541	1	1.59e6	1.56e6	1.05e6	1.16e6
30	CG42541	2	8.36e5 (active)	9.13e5	4.41e5	5.14e5
31	CG42541	3	1.50e6	1.47e6	1.04e6	1.14e6
32	bbg	1	1.48e6	1.63e6	1.31e6	1.44e6
33	bbg	2	1.35e6	1.41e6	1.27e6	1.44e6
34	Xe7	1	1.66e6	1.97e6	1.26e6	1.36e6
35	Cp16	1	1.25e6	1.37e6	1.19e6	1.26e6
36	CG3823	1	1.52e6	1.43e6	1.04e6	1.20e6
37	pasha	1	4.65e5		7.25e5	
38	tweek	1	1.52e6	1.61e6	1.20e6	1.34e6
39	tweek	2	1.43e6	1.52e6	1.19e6	1.34e6
40	tweek	3	1.21e6	1.35e6	1.19e6	1.19e6
41	CanA-14F	1	1.43e6	1.50e6	9.94e5	1.06e6
42	CG14005	1	1.35e6	1.37e6	5.75e5	6.35e5
43	dnr1	1	5.59e5		9.01e5	
44	dnr1	2	1.52e6	1.58e6	1.17e6	1.28e6
45	Cubn	1	5.89e5		9.15e5	
46	Scsalpha1	1	1.39e6	1.54e6	1.13e6	9.62e5
47	CG42264	1	1.39e6	1.52e6	1.06e6	1.18e6
48	CG42264	2	1.57e6	1.58e6	1.06e6	1.19e6
49	ema	1	1.37e6	1.61e6	8.53e5	9.70e5
50	sncRNA:430e + His2A:CG33859 + His2A:CG33817 + 37 more	1	1.54e6	1.52e6	8.97e5	9.82e5
51	CG32814	1	1.38e6	1.47e6	1.07e6	1.13e6
52	Zasp66	1	1.38e6	1.45e6	1.09e6	1.27e6
53	Zasp66	2	1.49e6	1.50e6	1.23e6	1.19e6
54	Zasp66	3	1.40e6	1.41e6	1.16e6	1.20e6
55	CG16825	1	1.60e6	1.66e6	1.30e6	1.44e6
56	betaTub85D	1	1.55e6	1.51e6	9.34e5	1.01e6
57	CG14573	1	1.40e6	1.71e6	1.27e6	1.32e6
58	CG4291	1	1.41e6	1.39e6	1.03e6	1.20e6
59	CG7409	1	1.26e6	1.45e6	1.15e6	1.18e6
